At least one compound was matched to its structure with a doubt left.
Test: Solubility of TSC in aqueous cyclodextrin solutions
Assay type: physicochemical
Settings: with gamma-cyclodextrin

For `CC(/C=C/C=C(\C)C(=O)[O-])=C\C=C\C=C(C)\C=C\C=C(/C)C(=O)[O-].[Na+].[Na+]` [TSC, trans sodium crocetinate], the “increase of solubility of TSC in water” value was 3-7 times.

Source: patent US11147859B2, “Diffusion enhancing compounds and their use alone or with thrombolytics” (Diffusion Pharmaceuticals LLC, priority 2009, dated 2021)
